Results are given in words; binding and its absence hold for the method and conditions named. Binding calls can cover weak binding; strength is not graded here.
Molecular target: monkey IL-18 (Thermo Fisher Scientific K.K.) (monkey)
Assay: ELISA on biotinylated cytokine on streptavidin plates

binding | Binder
binds | IgG molecule-type 4A6D (antibody, V domains shown, detected with anti-hFc, so human constant regions; also called human anti-human IL-18 antibody 4A6D) VH: EVQLVESGGGLVQPGGSMRLSCTASGFTFDEYAMSWVRQAPGKGLEWVSGISTGGGGTYYADSVEGRFTISRDNSKNTLYLQMNSLRAEDTAVYYCAKPWLSGSRSGDFWGQGTLVTVSS VL: QSALTQPASVSGSPGQSITISCTGTSSDVGGYNYVSWYQQHPGKAPKLLIYEVSHRPSGVSDRFSGSKSGNTASLTISGLQAEDEADYYCSSFTSSSSLYVFGTGTKLTVL
binds | IgG molecule-type 4A6S (antibody, V domains shown, IgG prepared by a standard method; also called human anti-human IL-18 antibody 4A6S) VH: EVQLVESGGGLVQPGGSMRLSCTASGFTFSEYAMSWVRQAPGKGLEWVSGISTGGGGTYYADSVEGRFTISRDNSKNTLYLQMNSLRAEDTAVYYCAKPWLSGSRSGDFWGQGTLVTVSS VL: QSALTQPASVSGSPGQSITISCTGTSSDVGGYNYVSWYQQHPGKAPKLLIYEVSHRPSGVSDRFSGSKSGNTASLTISGLQAEDEADYYCSSFTSSSSLYVFGTGTKLTVL

Source: US20190077858A1 (KM BIOLOGICS, published 2019)
